± gives the standard deviation of the averaged measurements. The list shows a part of the results.
Compound: Nc1nc2c(ncn2[C@@H]2O[C@H](COP(=O)(O)OP(=O)(O)OP(=O)(O)O)[C@@H](O)[C@H]2O)c(=O)[nH]1 [guanosine triphosphate]
Test: NP40-soluble protein abundance relative to vehicle (solubility fold change) (ratio); higher = more soluble protein in presence of GTP
In short: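 Jurkat crude lysate prepared with a Dounce homogeniser was treated at eight concentrations spanning 0.1 to 10 mM, 10 min at room temperature then 3 min at 37 °C. Solubilisation with 0.8% NP40 and benzonase and ultracentrifugation preceded TMT labelling of the supernatant for LC-MS/MS. Fold change against the detergent-processed vehicle was determined per replicate from vsn-normalised intensities, across three independent experiments.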

Protein sequences, listed by entry. Tags and fused reporters are not part of them. Lines headed by an entry give the natural chain unless they say otherwise; changes in a name come on top.
UniProt Q99943: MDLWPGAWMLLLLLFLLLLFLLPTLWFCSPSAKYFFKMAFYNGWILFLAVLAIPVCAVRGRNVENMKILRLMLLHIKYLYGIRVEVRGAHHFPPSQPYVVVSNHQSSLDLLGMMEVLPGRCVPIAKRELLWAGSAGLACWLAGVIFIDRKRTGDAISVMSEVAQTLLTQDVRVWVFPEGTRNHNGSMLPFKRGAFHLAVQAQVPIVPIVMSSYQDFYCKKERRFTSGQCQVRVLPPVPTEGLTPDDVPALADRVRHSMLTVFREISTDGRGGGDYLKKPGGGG
UniProt Q9BX70: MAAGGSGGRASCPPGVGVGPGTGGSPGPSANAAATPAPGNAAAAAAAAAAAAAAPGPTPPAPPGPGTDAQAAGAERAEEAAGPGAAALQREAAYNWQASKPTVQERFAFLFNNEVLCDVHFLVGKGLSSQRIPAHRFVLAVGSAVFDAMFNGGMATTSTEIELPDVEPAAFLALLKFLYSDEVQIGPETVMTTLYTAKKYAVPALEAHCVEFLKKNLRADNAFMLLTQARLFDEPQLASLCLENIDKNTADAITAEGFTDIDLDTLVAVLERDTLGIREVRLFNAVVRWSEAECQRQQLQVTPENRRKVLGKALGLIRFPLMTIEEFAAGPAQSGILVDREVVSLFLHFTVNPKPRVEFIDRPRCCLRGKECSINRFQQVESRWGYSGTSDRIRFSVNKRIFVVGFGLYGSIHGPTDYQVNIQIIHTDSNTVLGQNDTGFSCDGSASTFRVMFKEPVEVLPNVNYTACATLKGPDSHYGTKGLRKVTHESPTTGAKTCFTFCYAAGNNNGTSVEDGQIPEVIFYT
UniProt Q9BXS6: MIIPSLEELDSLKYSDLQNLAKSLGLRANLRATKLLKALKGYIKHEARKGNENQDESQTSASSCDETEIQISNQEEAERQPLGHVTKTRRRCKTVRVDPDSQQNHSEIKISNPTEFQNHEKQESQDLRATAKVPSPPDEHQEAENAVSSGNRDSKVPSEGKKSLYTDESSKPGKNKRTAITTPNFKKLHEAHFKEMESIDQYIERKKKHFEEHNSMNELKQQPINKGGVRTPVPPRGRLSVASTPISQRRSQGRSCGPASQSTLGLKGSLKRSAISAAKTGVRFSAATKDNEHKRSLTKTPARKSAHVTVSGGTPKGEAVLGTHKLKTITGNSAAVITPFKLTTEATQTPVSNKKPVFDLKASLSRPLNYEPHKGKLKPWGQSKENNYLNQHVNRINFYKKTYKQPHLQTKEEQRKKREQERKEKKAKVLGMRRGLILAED
UniProt Q96NC0: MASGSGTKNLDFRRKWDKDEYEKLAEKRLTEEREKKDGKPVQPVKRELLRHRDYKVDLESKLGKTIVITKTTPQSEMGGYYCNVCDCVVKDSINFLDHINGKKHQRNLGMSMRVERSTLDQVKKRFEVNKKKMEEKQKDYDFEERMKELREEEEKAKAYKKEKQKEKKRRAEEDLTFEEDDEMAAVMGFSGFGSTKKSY
UniProt Q9BRU9: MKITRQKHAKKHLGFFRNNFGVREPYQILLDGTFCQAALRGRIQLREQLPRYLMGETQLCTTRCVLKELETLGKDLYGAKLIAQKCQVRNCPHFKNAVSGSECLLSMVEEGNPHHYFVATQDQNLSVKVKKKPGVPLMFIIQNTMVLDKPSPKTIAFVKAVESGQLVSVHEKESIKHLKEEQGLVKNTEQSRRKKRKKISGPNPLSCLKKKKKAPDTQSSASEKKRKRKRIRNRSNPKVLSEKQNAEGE
UniProt Q9BXK1: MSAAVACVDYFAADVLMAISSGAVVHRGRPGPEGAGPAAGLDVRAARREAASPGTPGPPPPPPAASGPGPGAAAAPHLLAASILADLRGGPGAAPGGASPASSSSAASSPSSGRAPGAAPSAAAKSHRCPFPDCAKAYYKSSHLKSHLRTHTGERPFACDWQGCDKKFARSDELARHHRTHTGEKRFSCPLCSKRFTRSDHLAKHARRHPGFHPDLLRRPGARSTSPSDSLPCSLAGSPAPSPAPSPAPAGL
UniProt Q9BPZ7, whole entry: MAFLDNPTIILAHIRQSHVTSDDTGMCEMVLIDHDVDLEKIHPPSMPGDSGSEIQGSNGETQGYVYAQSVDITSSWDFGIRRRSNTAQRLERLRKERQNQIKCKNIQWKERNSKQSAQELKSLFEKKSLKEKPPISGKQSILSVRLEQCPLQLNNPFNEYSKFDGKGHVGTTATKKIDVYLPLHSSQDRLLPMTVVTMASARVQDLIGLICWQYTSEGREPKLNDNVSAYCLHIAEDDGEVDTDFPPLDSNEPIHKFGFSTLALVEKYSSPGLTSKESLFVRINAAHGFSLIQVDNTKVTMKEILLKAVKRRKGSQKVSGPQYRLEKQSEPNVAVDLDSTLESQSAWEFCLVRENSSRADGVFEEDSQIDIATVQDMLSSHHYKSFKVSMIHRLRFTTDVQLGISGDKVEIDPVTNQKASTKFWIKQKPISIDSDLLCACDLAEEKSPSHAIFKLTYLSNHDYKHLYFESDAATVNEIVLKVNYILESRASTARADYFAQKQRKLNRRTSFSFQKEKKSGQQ
UniProt Q9BSJ8: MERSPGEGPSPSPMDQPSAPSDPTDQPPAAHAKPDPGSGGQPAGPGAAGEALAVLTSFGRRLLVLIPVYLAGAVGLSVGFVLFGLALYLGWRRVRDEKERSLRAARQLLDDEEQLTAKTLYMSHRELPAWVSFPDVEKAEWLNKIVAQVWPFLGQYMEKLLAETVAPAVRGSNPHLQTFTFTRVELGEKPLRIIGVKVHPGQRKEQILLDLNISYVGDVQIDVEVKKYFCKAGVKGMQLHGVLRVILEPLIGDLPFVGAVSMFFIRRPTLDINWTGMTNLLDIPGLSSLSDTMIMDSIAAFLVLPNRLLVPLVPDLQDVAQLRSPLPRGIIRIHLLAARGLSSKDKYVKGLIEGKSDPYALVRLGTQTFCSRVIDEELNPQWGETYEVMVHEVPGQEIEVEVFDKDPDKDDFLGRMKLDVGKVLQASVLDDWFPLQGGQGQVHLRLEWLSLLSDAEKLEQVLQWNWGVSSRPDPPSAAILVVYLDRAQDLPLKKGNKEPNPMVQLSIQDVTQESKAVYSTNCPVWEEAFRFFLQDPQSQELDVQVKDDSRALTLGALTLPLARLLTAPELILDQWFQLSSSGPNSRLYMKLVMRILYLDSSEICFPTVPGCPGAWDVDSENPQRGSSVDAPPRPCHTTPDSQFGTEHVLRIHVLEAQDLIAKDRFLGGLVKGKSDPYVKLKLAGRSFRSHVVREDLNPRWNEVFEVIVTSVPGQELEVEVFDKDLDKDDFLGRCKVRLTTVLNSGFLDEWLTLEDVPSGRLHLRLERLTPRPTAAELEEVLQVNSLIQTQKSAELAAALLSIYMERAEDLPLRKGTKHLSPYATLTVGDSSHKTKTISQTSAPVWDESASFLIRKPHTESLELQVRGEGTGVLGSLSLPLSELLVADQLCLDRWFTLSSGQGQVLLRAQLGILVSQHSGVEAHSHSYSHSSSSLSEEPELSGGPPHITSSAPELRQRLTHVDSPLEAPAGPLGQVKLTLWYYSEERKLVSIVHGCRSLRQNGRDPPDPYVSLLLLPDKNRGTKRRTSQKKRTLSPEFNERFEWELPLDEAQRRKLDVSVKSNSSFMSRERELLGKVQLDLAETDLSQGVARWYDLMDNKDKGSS
UniProt Q9BV57: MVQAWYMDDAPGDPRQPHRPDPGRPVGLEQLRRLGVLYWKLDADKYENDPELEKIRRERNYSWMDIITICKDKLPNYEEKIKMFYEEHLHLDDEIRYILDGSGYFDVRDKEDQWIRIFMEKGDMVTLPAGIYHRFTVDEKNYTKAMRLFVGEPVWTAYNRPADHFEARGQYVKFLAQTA
UniProt Q96R06: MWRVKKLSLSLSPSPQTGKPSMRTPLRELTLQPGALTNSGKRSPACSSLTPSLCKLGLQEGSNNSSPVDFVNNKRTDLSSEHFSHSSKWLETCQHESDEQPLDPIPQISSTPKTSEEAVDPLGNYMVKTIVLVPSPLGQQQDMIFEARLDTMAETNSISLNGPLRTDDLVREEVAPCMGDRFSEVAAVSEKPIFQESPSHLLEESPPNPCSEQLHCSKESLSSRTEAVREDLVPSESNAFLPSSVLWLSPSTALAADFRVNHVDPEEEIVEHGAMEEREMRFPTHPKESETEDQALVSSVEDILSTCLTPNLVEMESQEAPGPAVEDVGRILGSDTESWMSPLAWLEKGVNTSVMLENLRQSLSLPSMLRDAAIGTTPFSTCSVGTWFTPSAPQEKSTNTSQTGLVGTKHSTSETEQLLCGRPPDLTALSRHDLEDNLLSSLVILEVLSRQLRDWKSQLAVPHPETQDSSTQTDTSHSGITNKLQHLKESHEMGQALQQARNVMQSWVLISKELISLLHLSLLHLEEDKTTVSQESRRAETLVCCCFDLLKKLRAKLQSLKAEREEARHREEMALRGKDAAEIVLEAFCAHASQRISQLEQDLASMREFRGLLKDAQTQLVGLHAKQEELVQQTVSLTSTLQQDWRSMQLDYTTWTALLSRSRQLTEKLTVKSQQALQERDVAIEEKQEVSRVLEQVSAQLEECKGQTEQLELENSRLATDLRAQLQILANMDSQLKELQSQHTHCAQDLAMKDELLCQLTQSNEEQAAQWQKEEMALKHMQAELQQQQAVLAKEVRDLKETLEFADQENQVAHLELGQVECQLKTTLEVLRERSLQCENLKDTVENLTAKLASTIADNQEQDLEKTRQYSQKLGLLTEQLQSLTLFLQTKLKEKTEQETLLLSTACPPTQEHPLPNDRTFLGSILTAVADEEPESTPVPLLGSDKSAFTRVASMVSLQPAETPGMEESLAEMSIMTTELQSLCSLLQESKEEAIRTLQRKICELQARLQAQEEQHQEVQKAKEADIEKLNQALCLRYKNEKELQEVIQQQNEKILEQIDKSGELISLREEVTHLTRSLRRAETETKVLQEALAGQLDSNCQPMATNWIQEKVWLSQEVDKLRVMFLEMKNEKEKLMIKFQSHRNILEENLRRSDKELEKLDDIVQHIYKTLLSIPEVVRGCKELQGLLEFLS
UniProt Q9BRK5: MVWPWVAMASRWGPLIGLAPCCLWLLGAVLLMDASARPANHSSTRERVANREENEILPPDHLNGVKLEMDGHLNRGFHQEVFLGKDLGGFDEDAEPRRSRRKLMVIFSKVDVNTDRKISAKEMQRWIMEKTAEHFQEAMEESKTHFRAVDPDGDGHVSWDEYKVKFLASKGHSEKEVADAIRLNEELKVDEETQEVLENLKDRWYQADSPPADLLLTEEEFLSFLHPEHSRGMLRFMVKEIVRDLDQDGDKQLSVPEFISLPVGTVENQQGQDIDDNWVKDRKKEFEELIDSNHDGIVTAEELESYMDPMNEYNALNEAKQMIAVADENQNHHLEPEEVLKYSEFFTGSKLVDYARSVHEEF
UniProt Q96Q83: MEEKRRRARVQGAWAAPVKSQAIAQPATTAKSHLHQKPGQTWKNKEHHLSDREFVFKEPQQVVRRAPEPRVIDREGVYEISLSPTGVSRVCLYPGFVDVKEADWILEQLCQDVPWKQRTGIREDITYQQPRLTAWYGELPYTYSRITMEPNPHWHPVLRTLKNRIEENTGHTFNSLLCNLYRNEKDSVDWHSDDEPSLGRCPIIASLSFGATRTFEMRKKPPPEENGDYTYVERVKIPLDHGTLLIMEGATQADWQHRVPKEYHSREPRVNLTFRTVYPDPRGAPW
UniProt Q96S52: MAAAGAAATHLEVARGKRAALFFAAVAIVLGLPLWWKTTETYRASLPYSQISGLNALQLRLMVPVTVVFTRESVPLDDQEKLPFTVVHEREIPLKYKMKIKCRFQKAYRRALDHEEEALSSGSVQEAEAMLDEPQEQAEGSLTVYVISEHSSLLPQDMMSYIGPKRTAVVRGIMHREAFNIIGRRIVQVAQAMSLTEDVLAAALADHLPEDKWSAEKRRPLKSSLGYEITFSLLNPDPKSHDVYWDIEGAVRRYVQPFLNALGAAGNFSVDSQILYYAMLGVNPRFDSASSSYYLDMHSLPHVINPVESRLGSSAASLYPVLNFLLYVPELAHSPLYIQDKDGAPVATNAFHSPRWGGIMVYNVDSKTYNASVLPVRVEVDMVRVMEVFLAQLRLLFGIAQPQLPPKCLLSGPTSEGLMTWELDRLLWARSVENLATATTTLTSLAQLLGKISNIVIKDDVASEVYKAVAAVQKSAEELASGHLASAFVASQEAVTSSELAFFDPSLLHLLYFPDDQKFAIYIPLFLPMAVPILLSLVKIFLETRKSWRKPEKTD

Row | Target | NP40-soluble protein abundance (concentration: 0.1mM) | NP40-soluble protein abundance (concentration: 0.5mM) | NP40-soluble protein abundance (concentration: 1mM) | NP40-soluble protein abundance (concentration: 2mM) | NP40-soluble protein abundance (concentration: 4mM) | NP40-soluble protein abundance (concentration: 6mM) | NP40-soluble protein abundance (concentration: 8mM) | NP40-soluble protein abundance (concentration: 10mM)
1 | AGPAT1 (UniProt Q99943) | 1.04 ± 0.034 | 0.963 ± 0.068 | 0.989 ± 0.11 | 0.957 ± 0.056 | 0.96 ± 0.021 | 0.95 ± 0.014 | 0.92 ± 0.043 | 0.871 ± 0.088
2 | UniProt Q96LW7-2 | 0.899 ± 0.12 | 1.06 ± 0.11 | 1.04 ± 0.2 | 1.11 ± 0.12 | 1.14 ± 0.16 | 1.12 ± 0.096 | 0.965 ± 0.17 | 1.08 ± 0.15
3 | BTBD2 (UniProt Q9BX70) | 1.09 ± 0.085 | 1.05 ± 0.062 | 1.01 ± 0.011 | 1.11 ± 0.063 | 1.09 ± 0.044 | 1.03 ± 0.084 | 1.07 ± 0.15 | 1.01 ± 0.026
4 | UniProt Q9BXS6 and related entries | 0.87 ± 0.079 | 0.764 ± 0.12 | 0.727 ± 0.11 | 0.768 ± 0.18 | 0.772 ± 0.16 | 0.737 ± 0.15 | 0.762 ± 0.11 | 0.806 ± 0.22
5 | UniProt Q96NC0 | 0.912 ± 0.053 | 1 ± 0.078 | 0.981 ± 0.083 | 1 ± 0.079 | 0.974 ± 0.079 | 1.01 ± 0.079 | 1.03 ± 0.092 | 1.08 ± 0.078
6 | UTP23 (UniProt Q9BRU9) | 1.04 ± 0.043 | 1.17 ± 0.1 | 1.06 ± 0.043 | 1.35 ± 0.029 | 1.472 ± 0.01 | 1.57 ± 0.16 | 1.44 ± 0.1 | 1.62 ± 0.035
7 | KLF16 (UniProt Q9BXK1) | 0.906 ± 0.048 | 0.831 ± 0.064 | 1.09 ± 0.061 | 1.03 ± 0.038 | 1.106 ± 0.0039 | 1.08 ± 0.041 | 0.998 ± 0.09 | 1.18 ± 0.085
8 | UniProt Q9BPZ7 and related entries | 0.977 ± 0.011 | 1.07 ± 0.11 | 1.05 ± 0.075 | 1.07 ± 0.092 | 1.1 ± 0.059 | 1.117 ± 0.0017 | 1.03 ± 0.05 | 1.017 ± 0.0057
9 | UniProt Q9BSJ8 | 1.01 ± 0.035 | 1.02 ± 0.028 | 0.958 ± 0.021 | 0.966 ± 0.018 | 0.943 ± 0.037 | 0.928 ± 0.011 | 0.913 ± 0.025 | 0.916 ± 0.025
10 | ADI1 (UniProt Q9BV57) | 0.911 ± 0.038 | 0.912 ± 0.024 | 0.913 ± 0.071 | 0.868 ± 0.041 | 0.85 ± 0.081 | 0.873 ± 0.083 | 0.818 ± 0.08 | 0.827 ± 0.061
11 | UniProt Q96L91 and related entries | 1.03 ± 0.021 | 1.06 ± 0.04 | 1.12 ± 0.03 | 1.18 ± 0.061 | 1.24 ± 0.13 | 1.26 ± 0.14 | 1.32 ± 0.22 | 1.34 ± 0.23
12 | SPAG5 (UniProt Q96R06) | 1.007 ± 0.0097 | 0.989 ± 0.024 | 1.01 ± 0.011 | 1 ± 0.015 | 1.02 ± 0.035 | 1.01 ± 0.035 | 1.02 ± 0.081 | 1.03 ± 0.086
13 | SDF4 (UniProt Q9BRK5) | 0.937 ± 0.025 | 0.892 ± 0.074 | 1.03 ± 0.034 | 0.982 ± 0.057 | 0.978 ± 0.059 | 0.975 ± 0.078 | 0.952 ± 0.067 | 0.986 ± 0.032
14 | ALKBH3 (UniProt Q96Q83) | 1.01 ± 0.092 | 0.928 ± 0.056 | 0.943 ± 0.09 | 0.946 ± 0.1 | 0.945 ± 0.055 | 0.904 ± 0.05 | 0.929 ± 0.093 | 0.876 ± 0.15
15 | UniProt Q96S52 and related entries | 1.02 ± 0.053 | 1.06 ± 0.078 | 1.04 ± 0.046 | 1.05 ± 0.077 | 1.09 ± 0.094 | 1.11 ± 0.11 | 1.12 ± 0.086 | 1.15 ± 0.069

Some values from the results shown:
UniProt Q9BSJ8 | NP40-soluble protein abundance (concentration: 6mM): 0.928 ± 0.011
UTP23 (UniProt Q9BRU9) | NP40-soluble protein abundance (concentration: 0.5mM): 1.17 ± 0.1

— the supplement of paper PMC6411743
